{"source": "patent US20260132221A1", "target": "T1, human PTK7 (full length) expressed on HEK293T cells (human) (UniProt Q13308)", "T1 sequence (looked up)": "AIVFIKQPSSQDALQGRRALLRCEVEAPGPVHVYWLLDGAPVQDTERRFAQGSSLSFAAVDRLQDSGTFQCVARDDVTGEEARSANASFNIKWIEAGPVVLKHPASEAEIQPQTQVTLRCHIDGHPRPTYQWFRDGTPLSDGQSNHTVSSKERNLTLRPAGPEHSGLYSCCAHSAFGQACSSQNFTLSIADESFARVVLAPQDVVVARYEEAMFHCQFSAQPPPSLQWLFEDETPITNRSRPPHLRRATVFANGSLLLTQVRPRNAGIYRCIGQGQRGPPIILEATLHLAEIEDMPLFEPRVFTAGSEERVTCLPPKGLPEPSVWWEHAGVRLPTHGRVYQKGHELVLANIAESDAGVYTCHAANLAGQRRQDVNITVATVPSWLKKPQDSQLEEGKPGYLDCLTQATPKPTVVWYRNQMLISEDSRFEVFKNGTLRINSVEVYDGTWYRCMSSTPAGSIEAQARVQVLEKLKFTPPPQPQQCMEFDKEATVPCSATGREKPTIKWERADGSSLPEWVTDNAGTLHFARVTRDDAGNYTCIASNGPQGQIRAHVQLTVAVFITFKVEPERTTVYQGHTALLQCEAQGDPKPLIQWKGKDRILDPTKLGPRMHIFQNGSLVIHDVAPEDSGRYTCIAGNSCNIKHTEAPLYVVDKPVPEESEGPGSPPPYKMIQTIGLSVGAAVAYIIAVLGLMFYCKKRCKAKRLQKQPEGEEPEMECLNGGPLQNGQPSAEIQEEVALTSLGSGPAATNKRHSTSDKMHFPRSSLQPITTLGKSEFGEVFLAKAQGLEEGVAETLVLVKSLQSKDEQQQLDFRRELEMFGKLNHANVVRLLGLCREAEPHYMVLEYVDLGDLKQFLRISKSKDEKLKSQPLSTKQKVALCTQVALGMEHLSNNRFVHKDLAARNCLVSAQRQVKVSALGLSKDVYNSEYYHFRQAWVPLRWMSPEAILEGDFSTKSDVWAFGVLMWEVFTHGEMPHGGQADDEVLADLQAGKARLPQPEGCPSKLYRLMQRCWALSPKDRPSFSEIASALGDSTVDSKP", "test": "flow cytometry and antibody-loaded magnetic particles on PTK7-expressing HEK293T cells, hybridoma screening", "note": "Results are given in words; binding and its absence hold for the method and conditions named. Some binding calls cover weakened binding; strength is not graded here."}
{"binder": "#19 antibody (antibody, V domains shown) VH: EVQLVESGGGLVQPGRSMKLSCAASGFTFSNYDMAWVRQAPTKGLEWVTSVSSDGSTTYYRDSVKGRFTISRDNAKTTLSLQMGSLRSEDTATYYCLTLYYSHWGQGVMVTVSS VL: DIQMTQSPASLSASLEEIVTITCQASQDIGDWLSWYQQKPGKSPQLLIYGTTTLADGVPSRFSGSRSGTQFSLKISRLQVEDIGIYYCLQAYSAPFTFGSGTKLKIK", "values": [{"measurement": "binding", "result": "binds"}]}
